# Source: PubChem BioAssay AID624297 (National Center for Advancing Translational Sciences (NCATS), 2012)
# In all, about 340,000 compounds went through this assay and about 6,200 (1.8%) were called active. This list was built around the results that the source calls inconclusive (neither active nor inactive); the mix of calls is not that of the screen. The call rests on the fitted dose curve; in most records, active means well fitted activation curve with a large enough effect; inconclusive means small, poorly fitted or top-dose-only effect; inactive means no such curve, though single readings can be large or run the other way. A potency beside an inconclusive call is a rough fit, not a confirmed value.
# Assay: A quantitative high throughput screen for small molecules that induce DNA re-replication in SW480 colon adenocarcinoma cells. Further: nearly all actives have a fitted effect of over 55% in size. On re-replication activation: % of control where 0% means no effect.
# Conditions: Hoechst DNA content imaging, 48 h; re-replication activation: at 46.1 µM (top of the series) unless noted
# Summary of the method: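 250 cells/well; 23 nL cpd via pin tool; 48 hr, 37 C, 5% CO2; Hoechst 40 min; imager read of total nuclear intensity, ex 405/em 500-530 nm.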
# Potency means the concentration at half of the fitted maximal effect.
SMILES,Potency,re-replication activation
N#Cc1c(SC(C(=O)O)c2ccccc2)nc2c(c1-c1cccs1)CCCC2 (stereo not drawn),inactive,–
O=C(Nc1ccc(F)c(Cl)c1)C1CCN(c2ncnc3c2nc2n3CCCCC2)CC1,"inconclusive: 2.51 µM [activator, single point]",–
CCN1C(=O)c2cccc3c(S(=O)(=O)N(C(=O)c4cccnc4)c4ccc(OC)cc4)ccc1c23,"inconclusive: 11.6 µM [activator, partial curve, poor fit]",–
Cc1ccc(C(=O)/C=C/c2c(C)nn(-c3ccccc3)c2Cl)cc1,"inconclusive: 29.1 µM [activator, single point]",–
CCN(Cc1ccccc1)C(=O)C1CCN(CC2CC=CCC2)CC1 (stereo not drawn),inactive,–
CCS(=O)(=O)c1ccc(-c2csc(-c3ccccc3)n2)c(Cl)c1Cl,"inconclusive: 32.6 µM [activator, partial curve, poor fit]",–
CCN(CC)CCn1c2ccccc2c2nc3ccccc3nc21,"inconclusive: 23.1 µM [activator, single point]",–
CC1(C)OC(=O)C(=CNC(=O)c2c(F)cccc2F)C(=O)O1,"inconclusive: 7.31 µM [activator, single point]",–
Cc1ccc(C(=O)N2CCc3ccccc32)o1,inactive,–
O=C(CN1C2=NCCN2c2ccccc21)c1ccc(Br)s1,"inconclusive: 29.1 µM [activator, single point]",–
O=C(NCCc1nnc2ccc(NCc3ccccc3Cl)nn12)c1ccccc1,"inconclusive: 29.1 µM [activator, partial curve, poor fit]",–
Cc1cccc(-n2c(O)c(C=Nc3cccc(O)c3)c3ccccc3c2=O)n1,"inconclusive: 16.4 µM [activator, single point]",–
CCCCn1nnnc1NCc1cccnc1,"inconclusive: 20.6 µM [activator, partial curve, poor fit]",–
COc1ccc(OC)c(-c2cc(C3CCN(c4cc(Cl)nc(N)n4)CC3)[nH]n2)c1,"inconclusive: 32.6 µM [activator, single point]",–
O=C(CSc1ccccc1)N(c1ccc(Br)cc1)c1nccs1,"inconclusive: 18.4 µM [activator, partial curve, poor fit]",–
O=C(CC1CCCC1)Nc1cc(C(F)(F)F)ccc1-n1cncn1,inactive,–
Cc1cc(Nc2ccc([N+](=O)[O-])cc2)nc2ccccc12,"inconclusive: 29.1 µM [activator, single point]",–
O=C(NN=C1CCCCCC1)c1ccc(Cl)s1,inactive,–
Cc1ccc(S(=O)(=O)N2CC=C(C(=O)NCCC(C)C)CC2)cc1,"inconclusive: 14.6 µM [activator, single point]",–
CN(/N=C/c1ccc(Br)o1)C1=NS(=O)(=O)c2ccccc21,"inconclusive: 16.4 µM [activator, single point]",–
COc1cccc(/C=C/C(=O)OCC(=O)c2c[nH]c3ccccc23)c1,"inconclusive: 6.51 µM [activator, full curve, poor fit]",–
CCOC(=O)c1c(/N=C/c2ccc(OC)cc2O)sc2c1CCN(C)C2,"inconclusive: 23.1 µM [activator, single point]",–
CC(=O)c1sc(NC(=O)C2CSC3(C)CCC(=O)N23)nc1-c1ccccc1 (stereo not drawn),"inconclusive: 2.91 µM [activator, partial curve, poor fit]",–
Cc1ccc(C2=NN(C)c3nc4ccccc4n3C2)cc1,"inconclusive: 23.1 µM [activator, single point]",–
O=C(/C=C/c1ccc(Cl)cc1)NC(=S)Nc1ccccc1C(=O)O,active: 16.4 µM,–

SMILES,Potency,re-replication activation
COc1ccc2[nH]c(C(=O)N3CCC(Cc4ccccc4)CC3)cc2c1,inactive,–
Cc1c(NC(=O)c2cc3nc(-c4ccc(Br)cc4)cc(C(F)(F)F)n3n2)c(=O)n(-c2ccccc2)n1C,"inconclusive: 16.4 µM [activator, single point]",–
CN(C)S(=O)(=O)N1CCC(n2nccc2NC(=O)CCCc2ccccc2)CC1,inactive,–
CCc1nnc(NC(=O)CCC(=O)NCCc2ccccc2)s1,inactive,–
O=S(=O)(/C=C/c1ccccc1)Oc1ccccc1,"inconclusive: 8.2 µM [activator, partial curve]",–
Cc1ccc(-c2cc(-c3ccc(C)o3)nc(N)c2C#N)cc1,active: 23.1 µM,–
CN(C(=O)COC(=O)CN1C(=O)c2cccc([N+](=O)[O-])c2C1=O)c1ccccc1,"inconclusive: 5.8 µM [activator, full curve, poor fit]",–
COc1ccc(S(=O)(=O)N2CCCCCC2)cc1NC(=O)CN1C(=O)NC(C)(c2ccc(C)cc2)C1=O (stereo not drawn),"inconclusive: 16.4 µM [activator, partial curve, poor fit]",–
O=C1C=C(c2ccc(Cl)c(C(F)(F)F)c2)C[C@@H](c2ccc(Cl)cc2)C1,inactive,–
C=C(C)CNC(=S)NNC(=O)CCn1c2cc(Cl)ccc2c2ccc(Cl)cc21,inactive,–
C=C1C(=O)C2=CC1CCC(=O)C1(C)CCC(OC(C)=O)C(C)(C)C1CC2O (stereo not drawn),active: 2.06 µM,–
C=CCNc1oc(/C=C/c2ccccc2)nc1C#N,active: 20.6 µM,–
O=C(Nc1ncc(Cc2cccc(Cl)c2)s1)C1CCCO1 (stereo not drawn),"inconclusive: 1.3 µM [activator, full curve, poor fit]",–
Nc1ccc(C#Cc2ccc3c(=O)c4ccccc4oc3c2)cc1,active: 16.4 µM,–
CC(C)(C)OC(=O)N1CCC[C@H]1C(=O)O,inactive,–
COc1ccc(CN2CCCC(CNC(=O)c3ccc(F)cc3)C2)c(C)c1C (stereo not drawn),"inconclusive: 1.16 µM [activator, single point]",–
CCOc1cc(/C=N/O)cc(Br)c1OCC(=O)NCc1ccccc1,inactive,–
CC(C)OP(=O)(OC(C)C)/C(C=O)=N\Nc1ccc([N+](=O)[O-])cc1,inactive,–
CCN1CCN(Cc2ccc(NC(=O)c3ccc(C)c(NC(=O)c4cncc(-c5cccs5)c4)c3)cc2C(F)(F)F)CC1,"inconclusive: 2.06 µM [activator, partial curve]",–
CC1(C)Cc2nc3sc4c(=O)[nH]cnc4c3cc2CS1,inactive,–
CC(C)(C)OC(=O)N1Cc2ccccc2C[C@H]1C(=O)NCC(=O)NC1CCCCC1,inactive,–
COC(=O)c1ccc(CNCC(O)COc2ccc(-c3ccccc3)cc2)cc1 (stereo not drawn),"inconclusive: 29.1 µM [activator, single point]",–
Cc1c(Cl)cccc1NC(=O)Nc1ccccc1C(N)=O,"inconclusive: 0.731 µM [activator, partial curve, poor fit]",–
Cc1cccc(-c2nc(Nc3cccc(O)c3)c3ccccc3n2)c1,inactive,–
O=C(NC(=S)NCCN1CCOCC1)c1ccccc1,"inconclusive: 14.6 µM [activator, single point]",–

SMILES,Potency,re-replication activation
CCC(c1ccccc1)c1nnc(NC(=O)c2ccco2)s1 (stereo not drawn),inactive,–
COc1cc(C)nc(N2CCC(C(=O)NCC3CCCO3)CC2)n1 (stereo not drawn),"inconclusive: 23.1 µM [activator, partial curve, poor fit]",–
COc1ccc(NC(=O)CSc2nc3ccccc3c3nc4ccccc4n23)cc1,"inconclusive: 4.61 µM [activator, full curve]",–
CC(C)CCNC(=O)Cc1ccc(Nc2nc(=S)[nH]c3ccccc23)cc1,inactive,–
CCCCNC(=S)NNC(=O)c1nn(C)c(C)c1Cl,inactive,–
Cc1cccc(NC(=O)/C(C#N)=C/c2cn(CC(=O)NCc3ccco3)c3ccccc23)c1C,"inconclusive: 9.2 µM [activator, partial curve, poor fit]",–
O=C(Nc1cnc2ccccc2c1)N1CCCCC1,–,inactive: -3.09% [at 9.22 µM]
Nn1c(Cc2cccc3ccccc23)nnc1SCc1ccccc1,inactive,–
O=c1c2ccccc2sc2ccc(NCCCN3CCOCC3)cc12,"inconclusive: 29.1 µM [activator, single point]",–
CC12CCC(O)CC1=CCC1C2CCC2(C)C3=NN=CC3CC12 (stereo not drawn),"inconclusive: 20.6 µM [activator, single point]",–
CCc1ccn2cc(-c3ccc4c(c3)OCO4)nc2c1,inactive,–
O=C(c1ccc(C#CC2(O)CCCCC2)cc1)N1CCN(C(c2ccccc2)c2ccccc2)CC1,"inconclusive: 29.1 µM [activator, single point]",–
CCOC(=O)c1sc(N(Cc2ccccc2)C(=O)COC(=O)c2ccc(O)cc2)nc1C,"inconclusive: 16.4 µM [activator, partial curve, poor fit]",–
C[C@H](NC(=O)c1cc2cc(Cl)ccc2n1C)C(=O)N1CCC[C@H]1C(=O)O,"inconclusive: 6.51 µM [activator, single point]",–
Cc1ccc(Nc2nnc(SC(C)C(=O)NCC3CCCO3)s2)cc1C (stereo not drawn),inactive,–
CCOC(=O)c1[nH]c(C)c(C(=O)Nc2ccc(C)c(Cl)c2)c1C,"inconclusive: 29.1 µM [activator, single point]",–
Cc1cc2c(sc3ccccc32)c(C)n1,–,inactive: -17.4% [at 9.22 µM]
Cn1c(N)c(C(=O)COC(=O)CNC(=O)c2ccccc2F)c(=O)n(C)c1=O,inactive,–
O=C(Nc1ccccc1)Nc1ccc(Cl)c([N+](=O)[O-])c1,"inconclusive: 29.1 µM [activator, single point]",–
CCC1(c2ccc(F)cc2)NC(=O)N(CC(=O)NC2CCCCCC2)C1=O (stereo not drawn),inactive,–
O=S(=O)(N1CCCCCC1)N1CCNCC1,inactive,–
O=C(c1cc(-c2ccccc2)on1)N1CCCCCC1,"inconclusive: 29.1 µM [activator, single point]",–
COc1ccc2[nH]cc(CCNC(=O)c3ccco3)c2c1,inactive,–

# 5 structures out of the list, ordered by number of heavy atoms, smallest number first.
SMILES,Potency,re-replication activation
O=C(Nc1cnc2ccccc2c1)N1CCCCC1,–,inactive: -3.09% [at 9.22 µM]
O=C(c1cc(-c2ccccc2)on1)N1CCCCCC1,"inconclusive: 29.1 µM [activator, single point]",–
Cc1ccc(Nc2nnc(SC(C)C(=O)NCC3CCCO3)s2)cc1C (stereo not drawn),inactive,–
CCC1(c2ccc(F)cc2)NC(=O)N(CC(=O)NC2CCCCCC2)C1=O (stereo not drawn),inactive,–
CCOC(=O)c1sc(N(Cc2ccccc2)C(=O)COC(=O)c2ccc(O)cc2)nc1C,"inconclusive: 16.4 µM [activator, partial curve, poor fit]",–
